Test results as given in PubChem BioAssay AID248 (DTP/NCI, 2004).
The list does not hold the whole screen: it gathers tests that were run many times, whatever their T/C, doses with no T/C, and many T/C values between a quarter and a half above the control. Other doses and runs of a compound stand elsewhere. T/C is the treated group as % of the vehicle group. Some doses have a count of surviving animals in place of a T/C: the source files T/C as zero there, which appears to mark a toxic dose or a test without result, not a measured value. Some survivor counts are full or nearly so, which does not show that the dose was tolerated: survival well below the control is almost never listed, so the zero probably covers shortened survival too. Survivors were counted at the toxicity check, usually on the fifth day, unless a day is given; later deaths do not show. Schedule codes are those of the source, taken here to give the interval after Q, in days (D) or hours (H), and the number of doses after X. Some entries hold several experiments; the results are listed from low to high. Some schedule codes hold Z or #, which are not explained here. For survival time, the PubChem record calls one and a half times the control and up active, and a quarter to a half above the control has no call in these data; cut-offs in other NCI protocols can differ.

Test system: L1210 leukemia ip in BDF1 mice, survival T/C
Test: NCI In Vivo Anticancer Drug Screen. Data for tumor model L1210 Leukemia (intraperitoneal) in B6D2F1 (BDF1) mice
Conditions: T/C endpoint: mean survival time, higher T/C = longer survival
[1] = dose: 400.0 mg/kg/injection, schedule: Q01DX009 (ip), vehicle: Klucel (hydroxypropylcellulose) (HPC)
[2] = dose: 400.0 mg/kg/injection, schedule: Q04DX002 (ip), vehicle: saline
[3] = dose: 200.0 mg/kg/injection, schedule: Q01DX001 (ip), vehicle: Klucel (hydroxypropylcellulose) (HPC)
[4] = dose: 400.0 mg/kg/injection, schedule: Q01DX001 (ip), vehicle: Klucel (hydroxypropylcellulose) (HPC)
[5] = dose: 400.0 mg/kg/injection, schedule: Q04DX002 (ip), vehicle: Klucel (hydroxypropylcellulose) (HPC)
[6] = dose: 200.0 mg/kg/injection, schedule: Q01DX009 (ip), vehicle: saline with Tween-80
[7] = dose: 400.0 mg/kg/injection, schedule: Q01DX009 (ip), vehicle: saline with Tween-80

OC1C2CCC(C2)C1C(O)(C(F)(F)F)C(F)(F)F (centres undefined) was tested, and the survivor count (dose: 100.0 mg/kg/injection, schedule: Q04DX003 (ip), vehicle: saline with Tween-80) was 2 of 6, the survivor count (dose: 200.0 mg/kg/injection, schedule: Q04DX003 (ip), vehicle: saline with Tween-80) was 0 of 6 and the survivor count (dose: 400.0 mg/kg/injection, schedule: Q04DX003 (ip), vehicle: saline with Tween-80) was 0 of 6.
N#C/C(=C\c1cccc(N)c1)c1ccccc1 was tested, and the survivor count (dose: 400.0 mg/kg/injection, schedule: Q01DX001 (ip), vehicle: saline with Tween-80) was 3 of 6.
For C[N+]1(C)CCc2ccccc2C1Cc1ccc(Oc2ccc(CC3c4ccccc4CC[N+]3(C)C)cc2)cc1 (centres undefined), the survivor count (dose: 50.0 mg/kg/injection, schedule: Q01DX009 (ip), vehicle: other) was 0 of 3, the survivor count (dose: 100.0 mg/kg/injection, schedule: Q01DX009 (ip), vehicle: other) was 0 of 3 and the survivor count (dose: 200.0 mg/kg/injection, schedule: Q01DX009 (ip), vehicle: other) was 0 of 3.
In the case of C=CCNC(=S)NCc1ccc(C)cc1, the survivor count [1] is reported as 0 of 6.
c1ccc2c[n+](CCCCCCCCCC[n+]3ccc4ccccc4c3)ccc2c1 was tested, and the survivor count (dose: 8.0 mg/kg/injection, schedule: Q01DX009 (ip), vehicle: saline) was 6 of 6, the survivor count (dose: 16.0 mg/kg/injection, schedule: Q01DX009 (ip), vehicle: saline) was 6 of 6 and the survivor count (dose: 32.0 mg/kg/injection, schedule: Q01DX009 (ip), vehicle: saline) was 2 of 6. For the same compound, the survivor count (dose: 45.0 mg/kg/injection, schedule: Q04DX003 (ip), vehicle: saline) was 0 of 6, the survivor count (dose: 70.0 mg/kg/injection, schedule: Q04DX003 (ip), vehicle: saline) was 0 of 6 and the survivor count (dose: 105.0 mg/kg/injection, schedule: Q04DX003 (ip), vehicle: saline) was 0 of 6.
For COC(=O)c1ccc[n+](C)c1, the survivor count [2] was 1 of 3.
For c1ccc2c(c1)ccc1cc3c4ccccc4c4ccccc4c3cc12, the survivor count (dose: 100.0 mg/kg/injection, schedule: Q01DX001 (ip), vehicle: carboxymethylcellulose (CMC)) was 4 of 4.
With CCCCCCCCCCCC[n+]1ccc2ccccc2c1 the survivor count (dose: 2.0 mg/kg/injection, schedule: Q01DX001 (ip), vehicle: carboxymethylcellulose (CMC)) was 4 of 4 and the survivor count (dose: 16.0 mg/kg/injection, schedule: Q01DX001 (ip), vehicle: carboxymethylcellulose (CMC)) was 1 of 4.
For O=C(NO)c1cnccn1, the T/C (dose: 444.0 mg/kg/injection, schedule: Q01DX015 (ip), vehicle: water) was 128 % of control.
With Nc1cc(Cl)cc2c1-c1c(Cl)cc(Cl)cc1C2O (centres undefined) the survivor count [1] was 3 of 6.
With C/C(CCC1=CC=CC1=O)=N\NC(N)=O the survivor count (dose: 200.0 mg/kg/injection, schedule: Q01DX001 (ip), vehicle: other) was 0 of 4 and the survivor count (dose: 400.0 mg/kg/injection, schedule: Q01DX001 (ip), vehicle: other) was 0 of 4.
CCCCN1C(=O)C(c2ccccc2)C2(CCN(C)CC2)C1=O (centres undefined) was tested, and the survivor count [3] was 3 of 6 and the survivor count [4] was 0 of 6.
N#Cc1cccc(/C=C/C=C\c2ccc([N+](=O)[O-])cc2)c1 was tested, and the survivor count [1] was 6 of 6.
For CCCCCCCC(CC(=O)O)OC(=O)CC(CCCCCCC)OC1OC(C)C(O)C(O)C1OC1OC(C)C(O)C(O)C1O (centres undefined), the survivor count [5] was 0 of 3.
For C=C(C)C1CCC2(C=O)CCC3(C)C(CCC4C5(C)CCC(OC6CCCCO6)C(C)(C)C5CCC43C)C12 (centres undefined), the survivor count (dose: 50.0 mg/kg/injection, schedule: Q04DX002 (ip), vehicle: saline with Tween-80) was 3 of 3.
c1ccc(-n2nc3c(c2OCCN2CCCC2)CCCc2ccccc2-3)cc1 was tested, and the survivor count [6] was 0 of 6 and the survivor count [7] was 0 of 6.
For CCOC(=O)Nc1cc2c(c(N)n1)N=C(CN(C)c1ccc(Cl)cc1)CN2, the T/C (dose: 44.0 mg/kg/injection, schedule: Q01DX001 (ip), vehicle: Klucel (hydroxypropylcellulose) (HPC)) was 126 % of control, the T/C (dose: 66.0 mg/kg/injection, schedule: Q01DX001 (ip), vehicle: Klucel (hydroxypropylcellulose) (HPC)) was 146 % of control and the survivor count [3] was 2 of 3. For the same compound, the survivor count [4] was 0 of 3.
CN(C)C(=S)SCCC(=O)O was tested, and the survivor count [5] was 0 of 3.
In the case of O/N=c1/cc(-c2cccs2)ss1, the survivor count (dose: 400.0 mg/kg/injection, schedule: Q01DX009 (ip), vehicle: saline) is reported as 3 of 6.
For NC(=S)N/N=C/c1ccc(F)cc1, the survivor count (dose: 240.0 mg/kg/injection, schedule: Q01DX Z (oral), vehicle: methylcellulose (MC)) was 0 of 6 and the survivor count (dose: 480.0 mg/kg/injection, schedule: Q01DX Z (oral), vehicle: methylcellulose (MC)) was 0 of 6.
In the case of COc1cc(NS(C)(=O)=O)ccc1Nc1c2ccc(Cl)cc2nc2c(OC)cccc12, the T/C (dose: 3.12 mg/kg/injection, schedule: Q01DX009 (ip), vehicle: water) is reported as 129 % of control, the survivor count (dose: 25.0 mg/kg/injection, schedule: Q01DX009 (ip), vehicle: water) is reported as 2 of 6 and the T/C (dose: 66.0 mg/kg/injection, schedule: Q04DX003 (ip), vehicle: saline with Tween-80) is reported as 143 % of control. For the same compound, the survivor count (dose: 99.0 mg/kg/injection, schedule: Q04DX003 (ip), vehicle: saline with Tween-80) was 6 of 6, the survivor count (dose: 100.0 mg/kg/injection, schedule: Q01DX009 (ip), vehicle: saline with Tween-80) was 6 of 6 and the survivor count (dose: 150.0 mg/kg/injection, schedule: Q04DX003 (ip), vehicle: saline with Tween-80) was 6 of 6. For the same compound, the survivor count [6] was 5 of 6 and the survivor count [7] was 3 of 6.
With CC(C)C(=O)CC(=O)C(C)C.CC(C)C(=O)CC(=O)C(C)C.[Cu] the survivor count (dose: 100.0 mg/kg/injection, schedule: Q01DX001 (ip), vehicle: saline) was 2 of 6, the survivor count (dose: 200.0 mg/kg/injection, schedule: Q01DX001 (ip), vehicle: saline) was 1 of 6 and the survivor count (dose: 400.0 mg/kg/injection, schedule: Q01DX001 (ip), vehicle: saline) was 1 of 6.
N=C(CN1CCCCC1)N1CCCCC1 was tested, and the survivor count (dose: 200.0 mg/kg/injection, schedule: Q04DX002 (ip), vehicle: saline) was 0 of 3 and the survivor count [2] was 0 of 3.
For O=C(C#CC(=O)[O][Sn]([c]1ccccc1)([c]1ccccc1)[c]1ccccc1)[O][Sn]([c]1ccccc1)([c]1ccccc1)[c]1ccccc1, the survivor count (dose: 25.0 mg/kg/injection, schedule: Q01DX001 (ip), vehicle: Klucel (hydroxypropylcellulose) (HPC)) was 2 of 6, the survivor count (dose: 25.0 mg/kg/injection, schedule: Q04DX002 (ip), vehicle: Klucel (hydroxypropylcellulose) (HPC)) was 0 of 3 and the survivor count (dose: 50.0 mg/kg/injection, schedule: Q04DX002 (ip), vehicle: Klucel (hydroxypropylcellulose) (HPC)) was 0 of 3. The survivor count (dose: 55.0 mg/kg/injection, schedule: Q01DX001 (ip), vehicle: Klucel (hydroxypropylcellulose) (HPC)) was 3 of 6, the survivor count (dose: 80.0 mg/kg/injection, schedule: Q01DX001 (ip), vehicle: Klucel (hydroxypropylcellulose) (HPC)) was 2 of 6 and the survivor count (dose: 100.0 mg/kg/injection, schedule: Q04DX002 (ip), vehicle: Klucel (hydroxypropylcellulose) (HPC)) was 0 of 3.
For Cc1cccc(OC(=O)Nc2cccc(Cl)c2)c1, the survivor count (dose: 400.0 mg/kg/injection, schedule: Q01DX009 (ip), vehicle: carboxymethylcellulose (CMC)) was 2 of 3 and 5 of 6.
With COC(=O)c1ccc2ccccc2n1 the survivor count (dose: 300.0 mg/kg/injection, schedule: Q01DX001 (ip), vehicle: saline) was 3 of 6.
With CCCCC(=O)N1CCCC(C)C1 (centres undefined) the survivor count (dose: 200.0 mg/kg/injection, schedule: Q04DX002 (ip), vehicle: Klucel (hydroxypropylcellulose) (HPC)) was 3 of 3 and the survivor count [5] was 1 of 3.
With Nc1ncnc2nc(Cc3ccccc3)[nH]c12 the survivor count (dose: 400.0 mg/kg/injection, schedule: Q01DX001 (ip), vehicle: gum acacia) was 1 of 6.
For O=C(Nc1ccc(I)cc1)Nc1ccc(Cl)cc1[N+](=O)[O-], the survivor count [6] was 6 of 6 and the survivor count [7] was 3 of 3 and 6 of 6.
Cc1nc(N)[nH]c(=O)c1CCCNC(=O)c1cccc([N+](=O)[O-])c1 was tested, and the survivor count [3] was 0 of 6.
